No constants are given. Whether binding was seen depends on the method and setting. Some entries that bind do so weakly or less than the wild type. One block for each binder: values may come before it.
Target: chondroitin sulfate proteoglycan 4 (CSPG4) (human) (UniProt Q6UVK1)
Experiment: flow cytometry of soluble scFv on CSPG4+ MDA-MB-231 cells (Protein L-biotin, streptavidin-PE)

By UniProt entry, the sequences of proteins in these tests, tags left out. Residues count along the entry.
UniProt Q6UVK1, residues 30-2322: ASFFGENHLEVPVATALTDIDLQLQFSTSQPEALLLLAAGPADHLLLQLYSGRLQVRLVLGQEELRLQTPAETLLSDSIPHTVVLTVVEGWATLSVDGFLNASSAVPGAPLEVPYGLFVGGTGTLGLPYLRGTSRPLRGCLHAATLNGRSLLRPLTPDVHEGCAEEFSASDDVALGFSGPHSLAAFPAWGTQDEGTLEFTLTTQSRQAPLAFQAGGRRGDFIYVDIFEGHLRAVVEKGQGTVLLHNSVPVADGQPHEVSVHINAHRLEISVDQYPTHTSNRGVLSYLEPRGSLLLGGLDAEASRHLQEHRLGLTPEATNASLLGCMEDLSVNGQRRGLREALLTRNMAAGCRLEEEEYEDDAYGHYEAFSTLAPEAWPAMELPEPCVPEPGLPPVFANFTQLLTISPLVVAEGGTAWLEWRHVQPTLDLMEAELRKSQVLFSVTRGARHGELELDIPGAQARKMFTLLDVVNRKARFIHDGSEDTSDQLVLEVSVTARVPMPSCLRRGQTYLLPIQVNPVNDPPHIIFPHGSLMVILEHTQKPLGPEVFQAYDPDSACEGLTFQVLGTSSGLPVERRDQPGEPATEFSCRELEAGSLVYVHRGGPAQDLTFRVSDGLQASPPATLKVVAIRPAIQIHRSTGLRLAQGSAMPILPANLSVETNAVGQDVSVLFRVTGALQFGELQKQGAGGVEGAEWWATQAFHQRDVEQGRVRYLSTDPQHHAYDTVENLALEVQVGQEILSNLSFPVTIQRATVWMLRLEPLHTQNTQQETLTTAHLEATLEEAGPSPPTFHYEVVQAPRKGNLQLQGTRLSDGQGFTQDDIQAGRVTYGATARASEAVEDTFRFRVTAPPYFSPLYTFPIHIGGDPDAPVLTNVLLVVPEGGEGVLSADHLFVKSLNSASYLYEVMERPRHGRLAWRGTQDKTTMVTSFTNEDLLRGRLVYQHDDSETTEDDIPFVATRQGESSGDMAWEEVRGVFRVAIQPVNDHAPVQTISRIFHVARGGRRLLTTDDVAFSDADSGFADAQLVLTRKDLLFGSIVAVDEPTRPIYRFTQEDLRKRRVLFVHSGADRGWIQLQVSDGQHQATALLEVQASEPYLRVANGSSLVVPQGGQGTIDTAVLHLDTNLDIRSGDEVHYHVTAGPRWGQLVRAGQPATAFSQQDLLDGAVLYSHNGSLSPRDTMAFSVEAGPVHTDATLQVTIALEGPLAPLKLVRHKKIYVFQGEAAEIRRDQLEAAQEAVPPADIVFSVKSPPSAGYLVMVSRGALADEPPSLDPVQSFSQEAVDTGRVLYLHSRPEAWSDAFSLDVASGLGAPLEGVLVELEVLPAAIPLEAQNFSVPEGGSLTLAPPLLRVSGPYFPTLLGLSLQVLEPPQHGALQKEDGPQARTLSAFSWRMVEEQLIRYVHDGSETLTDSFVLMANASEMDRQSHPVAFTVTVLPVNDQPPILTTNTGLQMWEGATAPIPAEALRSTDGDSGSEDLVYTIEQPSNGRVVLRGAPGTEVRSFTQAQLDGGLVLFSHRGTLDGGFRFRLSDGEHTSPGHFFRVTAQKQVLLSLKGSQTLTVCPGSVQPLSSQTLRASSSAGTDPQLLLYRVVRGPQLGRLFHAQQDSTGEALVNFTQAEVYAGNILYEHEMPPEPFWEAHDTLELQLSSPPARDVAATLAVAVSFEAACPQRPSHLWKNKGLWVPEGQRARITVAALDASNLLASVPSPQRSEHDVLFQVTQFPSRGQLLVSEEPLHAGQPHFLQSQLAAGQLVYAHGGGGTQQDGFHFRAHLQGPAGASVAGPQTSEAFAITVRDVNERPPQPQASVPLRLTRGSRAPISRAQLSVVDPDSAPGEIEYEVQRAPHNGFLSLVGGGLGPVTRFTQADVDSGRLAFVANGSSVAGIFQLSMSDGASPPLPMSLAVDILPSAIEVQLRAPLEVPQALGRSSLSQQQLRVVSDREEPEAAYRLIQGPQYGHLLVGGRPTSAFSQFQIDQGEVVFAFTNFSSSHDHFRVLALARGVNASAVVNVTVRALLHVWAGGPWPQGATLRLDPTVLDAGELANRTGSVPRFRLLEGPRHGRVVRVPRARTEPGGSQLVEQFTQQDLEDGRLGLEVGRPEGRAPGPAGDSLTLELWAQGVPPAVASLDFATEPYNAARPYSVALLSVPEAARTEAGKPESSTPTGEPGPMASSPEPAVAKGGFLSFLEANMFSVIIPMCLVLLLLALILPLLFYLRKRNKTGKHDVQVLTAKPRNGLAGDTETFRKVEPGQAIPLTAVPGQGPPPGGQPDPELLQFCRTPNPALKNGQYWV

binding: binds
B1: humanized scFv h763.74(#5) (scFv)
scFv: MEIVMTQSPSTLSASVGDRVIITCRASQTIYKNLHWYQQKPGKSPKLLIKYGSDSISGVPSRFSGSGSGTEYTLTISSLQPDDFATYYCLQGYSTPWTFGQGTKLTVLGGGGGSGGGGSGGGGSGGGGSQVQLVESGGGLVQPGGSLRLSCTASGYTFTDYSMHWVRKAPGKGLEWVGWINTATGEPTYADDFKGRFTISLDTSKNTVYLQMNSLRAEDTAVYFCASYYDYWGQGTLVTVSS

binding: binds
B2: humanized scFv h763.74(#2) (scFv)
scFv: MDIKLTQSPSILSASVGDRVIITCRASQTIYKNLHWYQQKPHRSPRLLIKYGSDSISGIPSRFSGSGSGTEYTLTISSLQPDDFAIYYCLQGYSTPWTFGGGTKLTVLGGGGGSGGGGSGGGGSGGGGSQVQLVESGGGLVQPGGSLRLSCTASGYTFTDYSMHWVRKTPGKGLKWVGWINTATGEPTYADDFKGRFTISLDTSKNTVYLQMNSLRAEDTATYFCFSYYDYWGQGTTVTVSS

— patent US20230242666A1
